Experimental data taken from PMC5608947.
No constants are given. Whether binding was seen depends on the method and setting. In cells and extracts the contact can be indirect. Some results given as binding are weak or reduced against the parent protein; the word gives no strength.

Sequences of proteins named here, by UniProt entry; tags and fusion partners are left off. A change or cut given only in a name is not applied to a line headed by its entry.
UniProt P56546: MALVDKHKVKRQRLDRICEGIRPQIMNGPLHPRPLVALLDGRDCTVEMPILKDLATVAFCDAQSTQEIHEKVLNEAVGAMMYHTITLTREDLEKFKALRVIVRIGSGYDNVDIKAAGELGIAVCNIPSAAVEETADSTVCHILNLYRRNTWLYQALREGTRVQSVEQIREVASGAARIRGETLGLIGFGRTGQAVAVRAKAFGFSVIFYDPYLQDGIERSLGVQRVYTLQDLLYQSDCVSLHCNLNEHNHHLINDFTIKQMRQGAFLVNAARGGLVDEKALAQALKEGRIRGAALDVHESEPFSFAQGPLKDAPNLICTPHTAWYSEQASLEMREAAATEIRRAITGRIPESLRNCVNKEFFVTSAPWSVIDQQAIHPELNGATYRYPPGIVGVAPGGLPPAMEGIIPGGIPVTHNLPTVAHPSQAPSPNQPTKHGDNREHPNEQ
UniProt Q09472: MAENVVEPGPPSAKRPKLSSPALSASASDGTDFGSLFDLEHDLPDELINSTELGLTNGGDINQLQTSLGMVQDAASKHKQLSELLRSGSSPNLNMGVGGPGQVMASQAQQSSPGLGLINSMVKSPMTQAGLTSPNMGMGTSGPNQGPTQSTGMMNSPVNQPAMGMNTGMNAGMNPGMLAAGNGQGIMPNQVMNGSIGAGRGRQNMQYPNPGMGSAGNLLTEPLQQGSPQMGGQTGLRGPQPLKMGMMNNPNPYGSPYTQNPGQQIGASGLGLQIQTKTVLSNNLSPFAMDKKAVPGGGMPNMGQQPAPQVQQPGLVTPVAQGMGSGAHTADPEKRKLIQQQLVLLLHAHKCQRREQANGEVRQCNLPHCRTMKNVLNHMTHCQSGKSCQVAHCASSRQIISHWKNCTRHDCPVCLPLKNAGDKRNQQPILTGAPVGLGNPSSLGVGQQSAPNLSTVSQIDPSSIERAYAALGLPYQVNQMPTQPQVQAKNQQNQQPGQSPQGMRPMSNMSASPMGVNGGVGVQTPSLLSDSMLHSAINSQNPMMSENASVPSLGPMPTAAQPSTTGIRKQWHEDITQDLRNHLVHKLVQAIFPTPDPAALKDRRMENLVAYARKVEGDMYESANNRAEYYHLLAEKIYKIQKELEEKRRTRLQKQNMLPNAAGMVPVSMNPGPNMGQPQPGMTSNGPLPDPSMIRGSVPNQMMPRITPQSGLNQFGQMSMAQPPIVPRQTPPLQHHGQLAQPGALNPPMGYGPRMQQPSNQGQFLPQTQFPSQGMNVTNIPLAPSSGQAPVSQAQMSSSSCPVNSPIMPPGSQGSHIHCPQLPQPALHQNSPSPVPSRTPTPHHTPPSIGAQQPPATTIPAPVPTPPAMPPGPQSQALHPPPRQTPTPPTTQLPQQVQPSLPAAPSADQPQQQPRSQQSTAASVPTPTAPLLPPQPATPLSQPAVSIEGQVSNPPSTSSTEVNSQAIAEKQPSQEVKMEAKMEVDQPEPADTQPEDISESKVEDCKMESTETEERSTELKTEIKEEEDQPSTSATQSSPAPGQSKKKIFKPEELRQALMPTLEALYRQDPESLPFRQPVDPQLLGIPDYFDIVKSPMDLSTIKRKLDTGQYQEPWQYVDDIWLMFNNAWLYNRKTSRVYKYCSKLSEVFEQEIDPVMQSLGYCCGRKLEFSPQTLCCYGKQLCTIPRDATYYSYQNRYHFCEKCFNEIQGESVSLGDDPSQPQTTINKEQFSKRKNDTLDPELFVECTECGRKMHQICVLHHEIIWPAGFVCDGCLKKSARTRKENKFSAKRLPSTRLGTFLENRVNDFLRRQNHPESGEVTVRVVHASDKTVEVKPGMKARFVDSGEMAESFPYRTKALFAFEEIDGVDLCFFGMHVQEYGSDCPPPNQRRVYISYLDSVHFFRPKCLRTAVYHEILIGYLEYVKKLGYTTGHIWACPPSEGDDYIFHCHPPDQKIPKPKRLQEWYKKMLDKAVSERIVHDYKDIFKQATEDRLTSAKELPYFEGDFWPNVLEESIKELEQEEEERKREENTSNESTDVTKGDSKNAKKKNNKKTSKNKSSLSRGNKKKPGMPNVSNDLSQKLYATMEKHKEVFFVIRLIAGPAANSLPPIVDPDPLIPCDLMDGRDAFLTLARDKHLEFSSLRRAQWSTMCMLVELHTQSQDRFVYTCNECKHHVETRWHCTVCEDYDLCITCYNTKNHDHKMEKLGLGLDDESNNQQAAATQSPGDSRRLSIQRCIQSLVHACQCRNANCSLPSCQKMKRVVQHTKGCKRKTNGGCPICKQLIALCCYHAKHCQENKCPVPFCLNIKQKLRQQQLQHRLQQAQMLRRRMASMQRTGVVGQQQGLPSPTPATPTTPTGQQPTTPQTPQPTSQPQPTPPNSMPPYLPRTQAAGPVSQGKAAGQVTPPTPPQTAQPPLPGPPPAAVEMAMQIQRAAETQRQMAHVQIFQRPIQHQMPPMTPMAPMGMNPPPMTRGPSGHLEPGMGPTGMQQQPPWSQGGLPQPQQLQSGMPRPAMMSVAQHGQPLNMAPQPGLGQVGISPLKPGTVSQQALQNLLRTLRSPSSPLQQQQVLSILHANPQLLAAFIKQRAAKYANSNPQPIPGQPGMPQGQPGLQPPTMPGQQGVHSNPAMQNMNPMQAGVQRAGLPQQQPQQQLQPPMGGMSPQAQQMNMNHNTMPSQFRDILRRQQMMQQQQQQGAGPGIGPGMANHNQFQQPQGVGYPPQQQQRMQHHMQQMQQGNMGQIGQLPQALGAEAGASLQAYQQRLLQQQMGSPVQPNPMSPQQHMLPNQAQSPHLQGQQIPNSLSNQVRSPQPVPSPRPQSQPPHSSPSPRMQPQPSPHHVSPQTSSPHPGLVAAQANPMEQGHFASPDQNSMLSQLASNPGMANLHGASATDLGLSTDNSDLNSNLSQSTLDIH

Legend:
[1] = biological target: CtBP1 (C-terminal binding protein 1), mouse, full length, HA-tagged and Flag-tagged copies (mouse) (UniProt O88712); experiment: co-IP; as the untreated control, but the lysate was incubated with 10 mM sodium lactate + 10 µM NADH at 37 °C for 20 min before IP, to promote CtBP dimerization; IP with anti-Flag, blot with anti-HA
[2] = biological target: CtBP1 (C-terminal binding protein 1), mouse, full length, HA-tagged and Flag-tagged copies (mouse) (UniProt O88712); experiment: co-IP; COS7 cells co-transfected with CtBP1-HA and CtBP1-Flag; NP-40 buffer lysate, untreated control, incubated at 37 °C for 20 min; IP with anti-Flag M2 antibody and protein A/G-Sepharose, blot with anti-HA
[3] = biological target: FLAG-tagged G189A CtBP2 (UniProt P56546); experiment: co-IP; HEK293 cells transfected with FLAG-tagged WT CtBP2 or G189A CtBP2, untreated or treated with 2DG or CoCl2 for 30 min; M-PER lysate with benzonase; anti-Flag M2 agarose overnight; p300 detected in the immunoprecipitate and normalized to p300 in the lysate input
[4] = biological target: FLAG-tagged wild-type CtBP2 (UniProt P56546); experiment: as above

For “CtBP1 (C-terminal binding protein 1), mouse, full length, HA-tagged and Flag-tagged copies (from UniProt O88712 1-441)”, the binding [1] was “binds” and the binding [2] was “binds weakly”.
“p300 (acetyltransferase p300) (from UniProt Q09472 1-2414)” was tested, and the binding [3] was “binds” and the binding [4] was “binds”.
